Article PMC5249250
These are yes or no findings as the source states them, for the method shown. For some assays here: Binding seen in cells or lysates may run through a third protein. Some results given as binding are weak or reduced against the parent protein; the word gives no strength. Tags and fused reporters may be left off the sequences shown.

Legend:
[1] = molecular target: T1, GFP-AtCUL3A (Arabidopsis thaliana) (UniProt Q9ZVH4); assay: co-IP; tagged proteins co-expressed by agroinfiltration in leaves; extract after 3 days incubated with epitope antibody agarose conjugates (anti-GFP or anti-HA) 3-4 hours at 4°C; blots with anti-HA and anti-GFP; MG132 treatment for POB1 with HA-PUB17 (Fig 7E)
T1 sequence: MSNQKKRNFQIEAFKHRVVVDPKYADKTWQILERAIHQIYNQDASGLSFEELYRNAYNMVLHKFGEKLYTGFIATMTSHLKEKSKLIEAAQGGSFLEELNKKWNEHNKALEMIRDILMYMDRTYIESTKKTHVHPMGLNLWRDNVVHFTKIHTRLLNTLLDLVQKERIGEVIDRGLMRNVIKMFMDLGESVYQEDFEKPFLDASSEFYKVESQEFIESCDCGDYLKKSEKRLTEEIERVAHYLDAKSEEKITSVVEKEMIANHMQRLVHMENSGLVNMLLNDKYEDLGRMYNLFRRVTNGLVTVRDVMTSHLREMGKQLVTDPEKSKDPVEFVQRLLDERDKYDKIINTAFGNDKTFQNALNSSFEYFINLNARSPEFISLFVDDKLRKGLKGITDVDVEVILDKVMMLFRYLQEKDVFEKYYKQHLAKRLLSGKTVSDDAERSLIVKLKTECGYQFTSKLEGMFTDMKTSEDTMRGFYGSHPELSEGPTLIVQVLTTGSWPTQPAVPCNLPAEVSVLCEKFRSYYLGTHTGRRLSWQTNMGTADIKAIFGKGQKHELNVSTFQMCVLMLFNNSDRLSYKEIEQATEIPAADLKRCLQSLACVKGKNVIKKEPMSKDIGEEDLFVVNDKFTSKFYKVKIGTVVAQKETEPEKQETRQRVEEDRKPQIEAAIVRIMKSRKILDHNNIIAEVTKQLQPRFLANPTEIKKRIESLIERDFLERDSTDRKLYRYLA

[2] = molecular target: POB1 expressed in planta (HA-POB1 and GFP-POB1) (Arabidopsis thaliana) (UniProt Q9FPW6); assay: as above
[3] = molecular target: T2, POB1 (yeast two-hybrid fusions) (Arabidopsis thaliana) (UniProt Q9FPW6); assay: two-hybrid; AD- and BD- fusions co-transformed into AH109 yeast cells; growth on selective media (Leu-, Trp-, His- and X-alpha-Gal), 30°C, 3 to 5 days
T2 sequence: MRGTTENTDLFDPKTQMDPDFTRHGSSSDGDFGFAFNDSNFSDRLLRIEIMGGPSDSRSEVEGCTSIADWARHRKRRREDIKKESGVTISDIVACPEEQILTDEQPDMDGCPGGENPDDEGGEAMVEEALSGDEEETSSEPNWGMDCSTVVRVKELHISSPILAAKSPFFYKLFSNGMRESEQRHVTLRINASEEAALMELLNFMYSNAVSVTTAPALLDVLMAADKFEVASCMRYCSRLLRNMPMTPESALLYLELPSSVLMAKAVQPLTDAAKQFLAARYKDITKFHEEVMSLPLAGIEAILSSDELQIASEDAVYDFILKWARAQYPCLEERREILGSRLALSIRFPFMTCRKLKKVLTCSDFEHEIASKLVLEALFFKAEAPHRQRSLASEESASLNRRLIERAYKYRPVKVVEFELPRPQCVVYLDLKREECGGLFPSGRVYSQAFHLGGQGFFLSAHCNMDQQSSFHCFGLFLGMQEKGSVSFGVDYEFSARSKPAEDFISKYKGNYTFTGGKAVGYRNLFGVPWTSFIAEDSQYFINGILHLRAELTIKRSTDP

Row | Binder | binding [1] | binding [2] | binding [3]
1 | POB1 expressed in planta (HA-POB1 and GFP-POB1) (protein, UniProt Q9FPW6 1-561) MRGTTENTDLFDPKTQMDPDFTRHGSSSDGDFGFAFNDSNFSDRLLRIEIMGGPSDSRSEVEGCTSIADWARHRKRRREDIKKESGVTISDIVACPEEQILTDEQPDMDGCPGGENPDDEGGEAMVEEALSGDEEETSSEPNWGMDCSTVVRVKELHISSPILAAKSPFFYKLFSNGMRESEQRHVTLRINASEEAALMELLNFMYSNAVSVTTAPALLDVLMAADKFEVASCMRYCSRLLRNMPMTPESALLYLELPSSVLMAKAVQPLTDAAKQFLAARYKDITKFHEEVMSLPLAGIEAILSSDELQIASEDAVYDFILKWARAQYPCLEERREILGSRLALSIRFPFMTCRKLKKVLTCSDFEHEIASKLVLEALFFKAEAPHRQRSLASEESASLNRRLIERAYKYRPVKVVEFELPRPQCVVYLDLKREECGGLFPSGRVYSQAFHLGGQGFFLSAHCNMDQQSSFHCFGLFLGMQEKGSVSFGVDYEFSARSKPAEDFISKYKGNYTFTGGKAVGYRNLFGVPWTSFIAEDSQYFINGILHLRAELTIKRSTDP | binds | binds | 
2 | POB1^D146A expressed in planta (HA-POB1^D146A and GFP-POB1^D146A) (protein, UniProt Q9FPW6 1-561) MRGTTENTDLFDPKTQMDPDFTRHGSSSDGDFGFAFNDSNFSDRLLRIEIMGGPSDSRSEVEGCTSIADWARHRKRRREDIKKESGVTISDIVACPEEQILTDEQPDMDGCPGGENPDDEGGEAMVEEALSGDEEETSSEPNWGMACSTVVRVKELHISSPILAAKSPFFYKLFSNGMRESEQRHVTLRINASEEAALMELLNFMYSNAVSVTTAPALLDVLMAADKFEVASCMRYCSRLLRNMPMTPESALLYLELPSSVLMAKAVQPLTDAAKQFLAARYKDITKFHEEVMSLPLAGIEAILSSDELQIASEDAVYDFILKWARAQYPCLEERREILGSRLALSIRFPFMTCRKLKKVLTCSDFEHEIASKLVLEALFFKAEAPHRQRSLASEESASLNRRLIERAYKYRPVKVVEFELPRPQCVVYLDLKREECGGLFPSGRVYSQAFHLGGQGFFLSAHCNMDQQSSFHCFGLFLGMQEKGSVSFGVDYEFSARSKPAEDFISKYKGNYTFTGGKAVGYRNLFGVPWTSFIAEDSQYFINGILHLRAELTIKRSTDP | binds |  | 
3 | AD-AtCUL3A (protein, UniProt Q9ZVH4 1-732) MSNQKKRNFQIEAFKHRVVVDPKYADKTWQILERAIHQIYNQDASGLSFEELYRNAYNMVLHKFGEKLYTGFIATMTSHLKEKSKLIEAAQGGSFLEELNKKWNEHNKALEMIRDILMYMDRTYIESTKKTHVHPMGLNLWRDNVVHFTKIHTRLLNTLLDLVQKERIGEVIDRGLMRNVIKMFMDLGESVYQEDFEKPFLDASSEFYKVESQEFIESCDCGDYLKKSEKRLTEEIERVAHYLDAKSEEKITSVVEKEMIANHMQRLVHMENSGLVNMLLNDKYEDLGRMYNLFRRVTNGLVTVRDVMTSHLREMGKQLVTDPEKSKDPVEFVQRLLDERDKYDKIINTAFGNDKTFQNALNSSFEYFINLNARSPEFISLFVDDKLRKGLKGITDVDVEVILDKVMMLFRYLQEKDVFEKYYKQHLAKRLLSGKTVSDDAERSLIVKLKTECGYQFTSKLEGMFTDMKTSEDTMRGFYGSHPELSEGPTLIVQVLTTGSWPTQPAVPCNLPAEVSVLCEKFRSYYLGTHTGRRLSWQTNMGTADIKAIFGKGQKHELNVSTFQMCVLMLFNNSDRLSYKEIEQATEIPAADLKRCLQSLACVKGKNVIKKEPMSKDIGEEDLFVVNDKFTSKFYKVKIGTVVAQKETEPEKQETRQRVEEDRKPQIEAAIVRIMKSRKILDHNNIIAEVTKQLQPRFLANPTEIKKRIESLIERDFLERDSTDRKLYRYLA |  |  | binds
4 | POB1 (yeast two-hybrid fusions) (protein, UniProt Q9FPW6 1-561) MRGTTENTDLFDPKTQMDPDFTRHGSSSDGDFGFAFNDSNFSDRLLRIEIMGGPSDSRSEVEGCTSIADWARHRKRRREDIKKESGVTISDIVACPEEQILTDEQPDMDGCPGGENPDDEGGEAMVEEALSGDEEETSSEPNWGMDCSTVVRVKELHISSPILAAKSPFFYKLFSNGMRESEQRHVTLRINASEEAALMELLNFMYSNAVSVTTAPALLDVLMAADKFEVASCMRYCSRLLRNMPMTPESALLYLELPSSVLMAKAVQPLTDAAKQFLAARYKDITKFHEEVMSLPLAGIEAILSSDELQIASEDAVYDFILKWARAQYPCLEERREILGSRLALSIRFPFMTCRKLKKVLTCSDFEHEIASKLVLEALFFKAEAPHRQRSLASEESASLNRRLIERAYKYRPVKVVEFELPRPQCVVYLDLKREECGGLFPSGRVYSQAFHLGGQGFFLSAHCNMDQQSSFHCFGLFLGMQEKGSVSFGVDYEFSARSKPAEDFISKYKGNYTFTGGKAVGYRNLFGVPWTSFIAEDSQYFINGILHLRAELTIKRSTDP |  |  | binds
